# PubChem BioAssay AID540256 (National Center for Advancing Translational Sciences (NCATS), 2011)
# Screen size: about 300,000 compounds; about 3,700 (1.2%) were called active. This list was built around the results that the source calls inconclusive (neither active nor inactive); the mix of calls is not that of the screen. The call rests on the fitted dose curve; tested in HEK293 cells. Where the call is inconclusive, the potency comes from a doubtful curve fit.
# Test: qHTS for Inhibitors of binding or entry into cells for Lassa Virus; further: nearly all actives have a fitted effect of over 50% in size
# Details: Lassa virus pseudotype entry inhibition, cell reporter; activity change, negative = inhibition: at 37.9 µM (top of the series) unless noted
# On the % scale 0 is the no-effect control and ±100 the full control effect; potency means the concentration at half of the fitted maximal effect.
Structure (SMILES),Potency,"activity change, negative = inhibition"
O=C1NC(=Nc2cccc(Cl)c2)SC1Cc1cccc(Cl)c1Cl (stereo not given),"inconclusive: 10.3 µM [inhibitor, partial curve]",–
COc1ccc(CC(=O)NCc2nc3cccnc3n2Cc2ccc(F)cc2)cc1OC,–,inactive: -0.784% [at 46.1 µM]
CCSc1nc(N)nc(-c2cccs2)c1C#N,–,inactive: 6.98%
CC(=O)c1c(C)[nH]c(C(=O)OCC(=O)NCCC(C)C)c1C,"inconclusive: 12.6 µM [inhibitor, single point]",–
Cc1ccc(NC(=O)CC2SC(=O)NC2=O)cc1 (stereo not given),–,inactive: -1.86%
Cc1ccc(C)c(N2CCN(C(=O)c3ccc(CS(=O)(=O)c4ccc(Br)cc4)o3)CC2)c1,"inconclusive: 22.4 µM [inhibitor, single point]",–
CCNc1ccc(C(=O)NN=C2CCCC2)cc1[N+](=O)[O-],"inconclusive: 6.31 µM [inhibitor, single point]",–
COc1cccc(NC(=O)CSc2nc3ccccc3nc2N2CCOCC2)c1,active: 7.08 µM,–
COc1cccc(/C=N/NC(=O)CSc2ccccc2C)c1O,"inconclusive: 11.6 µM [inhibitor, partial curve, poor fit]",–
CCOc1ccc(CC(=O)N/N=C/c2cccnc2)cc1,"inconclusive: 5.62 µM [activator, single point]",–
Cc1cc2nc(-c3ccc(SCC(=O)N4CCc5ccccc54)nc3)[nH]c2cc1C,"inconclusive: 29.1 µM [inhibitor, single point]",–
COc1ccc(Cl)cc1NC(=O)CSc1nccn1Cc1ccco1,–,inactive: -4.26% [at 46.1 µM]
CCOC(=O)N1CCN(C(=O)c2cc3ccccc3o2)CC1,"inconclusive: 7.94 µM [inhibitor, partial curve, poor fit]",–
Cc1ccccc1NC1=NCC(c2ccc([N+](=O)[O-])cc2)S1 (stereo not given),–,inactive: 5.31%
Cc1ccc(N2C(=O)NC(=O)/C(=C\c3cc(C)n(-c4cc(C(=O)O)cc(C(=O)O)c4)c3C)C2=O)cc1,"inconclusive: 2.82 µM [activator, full curve, poor fit]",–
CCn1c(=O)n(CC)c2cc(N3CCCC3)c(NC(=O)c3ccc(C)c([N+](=O)[O-])c3)cc21,"inconclusive: 12.6 µM [inhibitor, partial curve]",–
O=C(CSc1nc2ccccc2c(=O)n1Cc1ccccc1)Nc1ccc(Br)cc1C(=O)O,"inconclusive: 12.6 µM [inhibitor, single point]",–
CCn1c(SCC(=O)Nc2ccc(OC)cc2)nc2c(c1=O)SCC2,–,inactive: 14.9%
CCCCn1c2ccc(F)cc2c2nnc(SCCN(CC)CC)nc21,"inconclusive: 15.8 µM [inhibitor, single point]",–
Cc1ccc(Sc2cnc3ccccc3n2)cc1,"inconclusive: 35.5 µM [inhibitor, single point]",–
COc1cccc(C(=O)NC2CCN(CC(=O)Nc3ccccc3Cl)CC2)c1,"inconclusive: 35.5 µM [inhibitor, single point]",–
Cc1ccc(CNC(=O)c2c3c(nc4ccccc24)C(=O)N(C2CCCCC2)C3)cc1,"inconclusive: 35.5 µM [inhibitor, single point]",–
CCOC(=O)c1sc(NC(=O)c2sccc2C)cc1C,"inconclusive: 14.6 µM [inhibitor, single point]",–

Structure (SMILES),Potency,"activity change, negative = inhibition"
COc1ccnc(Oc2ccc(Cl)cc2)c1C#N,–,inactive: -1.99% [at 46.1 µM]
COc1ccc(C(=O)[C@H]2[C@H]3C(=O)N(c4ccc(OC(C)=O)cc4)C(=O)[C@H]3C3C=CC=NN32)cc1 (stereo not given in full),"inconclusive: 11.2 µM [inhibitor, partial curve, poor fit]",–
CC(Sc1nc(-c2ccc(F)cc2)cs1)C(=O)N1c2ccccc2CC1C (stereo not given),"inconclusive: 12.6 µM [inhibitor, partial curve, poor fit]",–
CCN(CC)c1ccc(N=Cc2c(C)[nH]c3ccccc23)cc1,–,inactive: -20.7%
COc1ccccc1COCC(O)CN(Cc1ccco1)Cc1ccccc1O (stereo not given),"inconclusive: 1.12 µM [inhibitor, partial curve]",–
COc1cc(C2CC(=O)c3c([nH]c(C(=O)OC4CCCCC4)c3C)C2)cc(OC)c1OC (stereo not given),active: 6.31 µM,–
Cc1nc2nc(-c3ccc(Cl)cc3)cn2nc1C,"inconclusive: 2.82 µM [inhibitor, full curve]",–
COc1ccc(N2CCN(C(=O)c3ccc(-c4nc(COc5ccccc5)c(C)o4)cc3)CC2)cc1,"inconclusive: 31.6 µM [activator, single point]",–
Cc1cccc(OCC(=O)N(Cc2sccc2C)C2CCS(=O)(=O)C2)c1 (stereo not given),–,inactive: -13.1% [at 46.1 µM]
COc1cc2ncnc(Nc3ccc(C)c(O)c3)c2cc1OC,"inconclusive: 19.9 µM [inhibitor, partial curve, poor fit]",–
CCCn1nnc(NC(=O)/C=C/c2ccco2)n1,–,inactive: 16.8%
O=C(Oc1ccc2ccc(OC(=O)N3CCCCCC3)cc2c1)N1CCCCCC1,–,inactive: 22.9%
Cc1nc(C)c(C(=O)C2=C(O)C(=O)N(CCN3CCOCC3)C2c2ccco2)s1 (stereo not given),–,inactive: -0.286%
Cc1cc(OCc2nc(N)nc(N)c2-c2ccc(Cl)c(Cl)c2)ccc1[N+](=O)[O-],active: 1 µM,–
CC1COC(Cn2c3ccccc3c3ccccc32)O1 (stereo not given),"inconclusive: 5.62 µM [inhibitor, partial curve, poor fit]",–
O=C(COc1ccc(S(=O)(=O)N2CCOCC2)cc1Cl)N1CCOCC1,–,inactive: 0.861%
Cc1cccc(N=Nc2ccc(O)c3ncccc23)c1,"inconclusive: 7.08 µM [inhibitor, partial curve, poor fit]",–
Cc1nn(C)c(C)c1CNC(=O)Nc1ccc2c(c1)OCO2,"inconclusive: 2.82 µM [activator, partial curve, poor fit]",–
Cc1ccc(SCCC(=O)N2CCC(C)CC2)cc1,"inconclusive: 32.6 µM [inhibitor, single point]",–
CCc1c(C)nc2nc(SCc3ccccc3Cl)[nH]n2c1=O,"inconclusive: 35.5 µM [inhibitor, single point]",–
C=CCNc1oc(-c2ccc(OC)cc2)nc1C#N,"inconclusive: 6.51 µM [activator, single point]",–
CCOc1ccc(OCC)c(NC(=O)CN(C)S(=O)(=O)c2ccc3c(c2)CCCC(=O)N3)c1,"inconclusive: 7.08 µM [inhibitor, partial curve, poor fit]",–

# Entries of single compounds as entered above. Values in the order: Potency	activity change, negative = inhibition
# `Cc1nn(C)c(C)c1CNC(=O)Nc1ccc2c(c1)OCO2` reads inconclusive: 2.82 µM [activator, partial curve, poor fit]	–
# `C=CCNc1oc(-c2ccc(OC)cc2)nc1C#N` reads inconclusive: 6.51 µM [activator, single point]	–
# `Cc1cccc(OCC(=O)N(Cc2sccc2C)C2CCS(=O)(=O)C2)c1` (stereo not given) reads –	inactive: -13.1% [at 46.1 µM]
# `COc1ccc(N2CCN(C(=O)c3ccc(-c4nc(COc5ccccc5)c(C)o4)cc3)CC2)cc1` reads inconclusive: 31.6 µM [activator, single point]	–
